Laboratory results: article PMC10387129

Molecular target: T1, DIS3 ΔNLS D146N+D487N-mVenus (Mus musculus) (UniProt Q9CSH3)
T1 sequence (looked up, limits assumed): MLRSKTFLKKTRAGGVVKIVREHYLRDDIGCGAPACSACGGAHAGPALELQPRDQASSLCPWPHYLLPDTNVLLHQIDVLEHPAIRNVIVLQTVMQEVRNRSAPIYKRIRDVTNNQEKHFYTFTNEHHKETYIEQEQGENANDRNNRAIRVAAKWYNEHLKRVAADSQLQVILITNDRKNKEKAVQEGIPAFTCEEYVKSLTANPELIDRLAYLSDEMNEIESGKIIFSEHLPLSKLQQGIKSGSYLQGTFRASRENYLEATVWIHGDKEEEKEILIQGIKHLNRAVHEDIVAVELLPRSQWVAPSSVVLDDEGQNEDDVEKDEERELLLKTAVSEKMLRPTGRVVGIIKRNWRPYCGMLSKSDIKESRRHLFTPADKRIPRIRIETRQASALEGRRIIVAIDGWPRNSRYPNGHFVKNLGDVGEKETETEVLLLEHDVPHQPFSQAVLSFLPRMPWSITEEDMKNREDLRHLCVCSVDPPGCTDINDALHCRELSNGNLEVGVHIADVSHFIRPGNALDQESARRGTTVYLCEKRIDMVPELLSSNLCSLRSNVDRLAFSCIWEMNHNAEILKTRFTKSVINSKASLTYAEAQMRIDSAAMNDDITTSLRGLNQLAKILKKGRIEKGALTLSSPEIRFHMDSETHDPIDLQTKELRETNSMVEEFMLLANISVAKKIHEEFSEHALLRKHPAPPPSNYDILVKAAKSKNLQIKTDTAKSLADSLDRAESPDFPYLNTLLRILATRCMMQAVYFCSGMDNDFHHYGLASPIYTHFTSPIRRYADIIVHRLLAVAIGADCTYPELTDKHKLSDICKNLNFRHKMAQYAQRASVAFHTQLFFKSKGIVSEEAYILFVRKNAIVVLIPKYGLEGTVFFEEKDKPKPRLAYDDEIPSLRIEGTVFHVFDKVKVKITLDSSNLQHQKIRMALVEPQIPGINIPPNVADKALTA
Experiment: EMSA
Settings: 5 mM Mg2+, supershifted by anti-FLAG; LightShift RNA EMSA 1X binding buffer, 2.5% added glycerol, 5 mM MgCl2, RNase inhibitor, 1 ng biotin probe per 20 uL, 1 uL extract (1 mg/mL), 30 min room temperature; protein in an extract; protein details: mVenus with FLAG epitope (anti-FLAG); label: biotin (random internal Bio-11-CTP and Bio-11-UTP)

“GGGGUUAUUGGAGCACUUCCGUGGGUAGUGAACUCAGCUAGCGUGGCCACACCAGCACCGGCACAGAGCCUGCAGGUCCAAGCCGUGACUCCCCAGCUCUUGUUGAAUGCCCAGGGCCAGGUGACCCUUUAGUGAGGGUUAAUU [Pou6f1 exon 8 RNA probe]”: binds.

Construct, isoform or probe ends are uncertain for at least one entry. Where cells or extracts were used, other partners may take part. Tags and fusion partners may be left off the protein sequences shown.
